Measurements reported in PubChem BioAssay AID540276 (National Center for Advancing Translational Sciences (NCATS), 2011).
Values joined by “and” are separate entries in the source; they are usually repeats but may differ in a detail not shown here. Equal entries are not always repeated. Out of some 300,000 compounds screened, about 5,400 (1.8%) were called active. Inconclusive means that the source gave no clear call. Such entries were picked first, then a sample of the others. Calls follow the shape of the full dose curve; tested in HEK293 cells. A potency beside an inconclusive call is a rough fit, not a confirmed value.
% is scaled to controls: 0 for no effect and ±100 for the full control effect; potency is read from the fitted curve at half-maximal effect.

Assay: qHTS for inhibitors of binding or entry into cells for Marburg Virus
Settings: Marburg virus pseudotyped entry inhibition, cell reporter; activity change, negative = inhibition: at 37.8 µM (top of the series) unless noted
With CCOC(=O)C1CCCN(C(=O)Cn2c(=O)c3cccn3c3cccnc32)C1 (stereo not drawn) the “activity change, negative = inhibition” value was inactive: 6.42% [at 46.1 µM]. With Cc1occc1-c1nnc(SCC(=O)Nc2ccc3c(c2)OCO3)n1CC1CCCO1 (stereo not drawn) the “activity change, negative = inhibition” value was inactive: 1.24%. For COc1ccc(C(=O)NC(=S)Nc2nnn(C)n2)cc1, the Potency was inconclusive: 0.631 µM [activator, full curve, poor fit]. With Cc1cnc(C)c(N2CCC(C(=O)NCc3ccco3)CC2)n1 the Potency was inconclusive: 2.82 µM [activator, full curve]. With O=C(CC1SC2=NCCN2C1=O)Nc1ccccc1 (stereo not drawn) the “activity change, negative = inhibition” value was inactive: 3.51%. For CCCCCCC[n+]1ccc(-c2cc[n+](CCCCCCC)cc2)cc1, the Potency was inconclusive: 16.4 µM [inhibitor, single point]. With Oc1ccc(C(c2nnnn2C2CCCCC2)N2CCOCC2)cc1 (stereo not drawn) the Potency was inconclusive: 5.62 µM [activator, partial curve, poor fit]. With COC(=O)C1=C(C(=O)OC)C(C(=O)OC)C(C(=O)OC)C(C(=O)OC)(C(=O)OC)C(C(=O)OC)=C1C(=O)OC (stereo not drawn) the Potency was inconclusive: 25.1 µM [inhibitor, single point]. With CCOC(=O)CN1C(=O)N[C@@H](c2cccc(C(F)(F)F)c2)C(C(C)=O)=C1C the Potency was inconclusive: 0.0237 µM [activator, full curve, poor fit]. For CCc1cccc(N=c2c([N+](=O)[O-])nn(-c3ccc(Cl)cc3)n2O)c1, the Potency was inconclusive: 29.1 µM [inhibitor, single point]. In the case of O=C(CNC1CCCCC1)NCC1(c2ccccc2)CCCC1, the Potency is reported as inconclusive: 7.08 µM [inhibitor, partial curve, poor fit]. For COc1ccc(CNC(=O)C2CCN(C(=O)c3ccco3)CC2)cc1, the “activity change, negative = inhibition” value was inactive: -12.6% [at 46.1 µM]. With CCOC(=O)CNC(=O)c1ccc(Cl)s1 the “activity change, negative = inhibition” value was inactive: -5.34% [at 46.1 µM]. For Cc1cc(NC(=O)c2sc(Nc3cccc(C(F)(F)F)c3)nc2N)no1, the Potency was inconclusive: 13 µM [inhibitor, partial curve]. For O=C(NCCN1CCN(C(=O)c2cc3ccccc3oc2=O)CC1)c1cc2ccccc2oc1=O, the Potency was inconclusive: 10 µM [activator, partial curve, poor fit]. In the case of Cc1ccc(N=N/C(=C\O)C(=O)c2ccc(Cl)cc2)cc1, the Potency is reported as inconclusive: 14.1 µM [inhibitor, partial curve, poor fit]. With COc1ccc(N2CCN(C(=O)Nc3cccc(C(F)(F)F)c3)CC2)cc1 the Potency was “inactive”. With CCc1ccccc1NC(=O)Cc1c(C(=O)O)[nH]c2ccc(Cl)cc12 the “activity change, negative = inhibition” value was inactive: -2.71% [at 46.1 µM]. For O=C(CN1C(=O)c2cccc3cccc(c23)C1=O)N1CCN(c2ccccn2)CC1, the Potency was inconclusive: 17.8 µM [inhibitor, single point]. With O=C(Nc1cccc(S(=O)(=O)N2CCOCC2)c1)c1cccc(S(=O)(=O)N2CCCCC2)c1 the Potency was inconclusive: 22.4 µM [inhibitor, single point]. In the case of Cn1c(=O)c2c(nc(N/N=C/c3cccs3)n2C)n(C)c1=O, the Potency is reported as inconclusive: 11.2 µM [activator, single point]. In the case of Cc1cccc(NC(=O)CSc2cc(C)c3ccccc3n2)c1, the Potency is reported as active: 2.24 µM. In the case of CCn1c2ccccc2c2cc(N=C3SC(CC(=O)Nc4ccccc4OC)C(=O)N3C)ccc21 (stereo not drawn), the Potency is reported as inconclusive: 16.4 µM [inhibitor, partial curve, poor fit]. For COc1ccc(C(=O)NC(C)C2CC3CCC2C3)c(OC)c1 (stereo not drawn), the Potency was inconclusive: 5.62 µM [activator, single point]. In the case of COc1ccc(N2C(=O)NC3CC2(C)Oc2ccc(Cl)cc23)cc1OC (stereo not drawn), the Potency is reported as inconclusive: 11.2 µM [inhibitor, partial curve]. For C=CCOC(=O)C1=C(C)NC(=O)NC1c1ccc(N(C)C)cc1 (stereo not drawn), the “activity change, negative = inhibition” value was inactive: 15.5%. With O=C(NNc1c(Cl)cc(Cl)cc1Cl)C1CCC1 the Potency was inconclusive: 3.55 µM [inhibitor, partial curve, poor fit]. For Cc1ccc(N2CC(C(=O)N3CCC4(CC3)CC(=O)c3ccccc3O4)CC2=O)cc1C (stereo not drawn), the “activity change, negative = inhibition” value was inactive: -13.8%. In the case of CCc1ccc(NC(=S)N2CCCCCCC2)cc1, the “activity change, negative = inhibition” value is reported as inactive: 5.07% [at 46.1 µM]. For COc1cc(NC(=O)Cn2cc(S(=O)(=O)c3ccccc3)c(=O)c3ccccc32)cc(OC)c1, the “activity change, negative = inhibition” value was inactive: 0.583% [at 46.1 µM]. For CCCCCC(=O)Nc1cccc(-c2nc3ncccc3o2)c1, the Potency was inconclusive: 16.4 µM [inhibitor, single point]. In the case of COc1cc(OC)cc(C(=O)N[C@H](C(=O)OCC(=O)Nc2ccc3c(c2)OCO3)C(C)C)c1, the Potency is reported as inconclusive: 3.55 µM [inhibitor, single point]. For COc1ccccc1-n1c(C)c(C(C)=O)c2cc(O)ccc21, the Potency was inconclusive: 11.2 µM [inhibitor, partial curve, poor fit]. With O=C1CCC(C(=O)Nc2cc(C(F)(F)F)ccc2-n2cncn2)=NN1 the Potency was inconclusive: 6.31 µM [activator, single point]. In the case of N/C(COc1ccccc1)=N\NS(=O)(=O)c1ccccc1, the “activity change, negative = inhibition” value is reported as inactive: 10.4%. In the case of CCOc1ccc(S(=O)(=O)NCc2cccnc2)cc1NC(=O)c1ccccc1F, the Potency is reported as inconclusive: 7.08 µM [inhibitor, partial curve, poor fit]. In the case of CCc1nnc(NC(=O)CN2CCN(Cc3ccccc3C)CC2)s1, the Potency is reported as inconclusive: 1.26 µM [inhibitor, single point]. In the case of O=C(CC1NC(=O)NC1=O)Nc1cccc2ccccc12 (stereo not drawn), the Potency is reported as inconclusive: 0.82 µM [activator, partial curve]. In the case of CCOc1cc(CNCc2ccccc2)ccc1OCc1ccc(Cl)cc1, the Potency is reported as inconclusive: 22.4 µM [inhibitor, single point]. For Cc1cc(C)n(C(=O)c2cc3sccc3[nH]2)n1, the “activity change, negative = inhibition” value was inactive: 9.36%. In the case of N/C(=N\OC(=O)c1cccs1)c1cccnc1, the Potency is reported as inconclusive: 6.31 µM [activator, full curve, poor fit]. In the case of Cc1ccc(C)c(C(=O)Nc2cc(C)nn2-c2nc(C)cc(C)n2)c1, the Potency is reported as inconclusive: 6.31 µM [inhibitor, single point]. In the case of Oc1ccc(C=NNc2nc3ccccc3s2)c(O)c1, the Potency is reported as inconclusive: 35.5 µM [inhibitor, single point]. In the case of CCN(CCCNC(=O)c1cc2cc3ccc(OC)cc3nc2s1)c1ccccc1, the Potency is reported as inconclusive: 10 µM [inhibitor, partial curve, poor fit]. In the case of CCCc1cc(C(=O)Nc2ccc(CC)cc2)no1, the Potency is reported as inconclusive: 8.91 µM [inhibitor, partial curve, poor fit]. For COc1ccc(Cl)cc1NC(=S)Nc1cccc(C)c1, the Potency was inconclusive: 7.94 µM [activator, partial curve, poor fit]. With COc1cc(C2CC(=O)Nc3c2c(=O)nc2c(C)cccn32)cc(OC)c1OC (stereo not drawn) the Potency was “inactive and inconclusive: 2.82 µM [inhibitor, full curve, poor fit]”. For Cc1cc(C)c(C)c(OCCOCCN2CCN(C)CC2)c1, the Potency was inconclusive: 16.4 µM [inhibitor, partial curve, poor fit]. With CNC(=O)c1c(NC(=O)c2cccc(C)c2)sc2c1CCC2 the Potency was inconclusive: 31.6 µM [inhibitor, single point]. With O=C(NCCOC(=O)c1c(F)cccc1Cl)c1c(F)cccc1Cl the Potency was inconclusive: 12.6 µM [inhibitor, partial curve, poor fit]. In the case of CCCCNc1cc(C(=O)O)cc(S(N)(=O)=O)c1Oc1ccccc1, the Potency is reported as inconclusive: 5.62 µM [inhibitor, single point]. With CC(=O)Nc1ccc(NC(=O)Cc2ccc(S(=O)(=O)N3CCCCC3)cc2)cc1 the “activity change, negative = inhibition” value was inactive: 6.09%. In the case of Cc1cc(C)c(NC(=O)C2CC(=O)N(Cc3ccccc3)C2)c(C)c1 (stereo not drawn), the “activity change, negative = inhibition” value is reported as inactive: -0.341% [at 46.1 µM]. For Cc1ccc(-c2csc(N/N=C/c3ccco3)n2)cc1, the Potency was inconclusive: 20.6 µM [inhibitor, single point]. For Oc1ccccc1C=NC1=NN(c2cccc(C(F)(F)F)c2)CC1, the “activity change, negative = inhibition” value was inactive: 9.63%. In the case of CCOC(=O)C1=C(NC(=S)NC(=O)c2ccccc2)c2ccccc2CC1(C)C, the Potency is reported as inconclusive: 0.708 µM [inhibitor, partial curve, poor fit]. With COc1cccc(C(=O)C(=O)c2cccc(OC)c2OC)c1OC the Potency was inconclusive: 35.5 µM [inhibitor, partial curve, poor fit]. For COc1ccccc1C(CNC(=O)c1oc2ccccc2c1C)N1CCCC1 (stereo not drawn), the “activity change, negative = inhibition” value was inactive: -63%. With Cc1ccccc1C(=O)NCCOc1ccccc1Cl the Potency was inconclusive: 3.55 µM [activator, partial curve, poor fit]. With COc1ccccc1NC(=O)CSc1nnc(-c2ccccn2)n1Cc1ccco1 the “activity change, negative = inhibition” value was inactive: -15.3%. For Brc1c(CSc2nc3ccccc3s2)nc2ncccn12, the Potency was inconclusive: 0.1 µM [activator, full curve, poor fit]. In the case of COC(=O)C1=C[C@]2(c3ccccc3C[C@H](OC)[C@@H]2C)[C@H]2C=C[C@H]1C2, the Potency is reported as inconclusive: 1.19 µM [activator, single point]. For COC(=O)[C@H]1O[C@@H](c2c(OC)c(OC)c(C)c(OC)c2OC)[C@H](C)[C@@H](O)[C@@H]1C, the “activity change, negative = inhibition” value was inactive: 6.23% [at 14.2 µM]. In the case of CSc1ccc(-c2cccc([N+](=O)[O-])c2)nn1, the “activity change, negative = inhibition” value is reported as inactive: -17.5% [at 46.1 µM]. For O=C(N/N=C/c1ccco1)c1cc(Br)ccc1OCc1ccccc1, the Potency was inconclusive: 8.91 µM [inhibitor, partial curve, poor fit]. For CCCn1nnnc1SCC(=O)c1ccc(NC(C)=O)cc1, the “activity change, negative = inhibition” value was inactive: -2.44% [at 46.1 µM]. With COc1cccc(NC(=O)C2C3C=CC(O3)C2C(=O)NCc2cccnc2)c1 (stereo not drawn) the Potency was inconclusive: 29.1 µM [inhibitor, single point]. In the case of CCc1nc(SCC(=O)NCc2ccco2)c2c3c(sc2n1)CCCC3, the Potency is reported as inconclusive: 0.112 µM [inhibitor, full curve, poor fit].
